No constants are given. Whether binding was seen depends on the method and setting. A result given as binding can be weak or reduced; the word gives no strength.
Target: c subunit of the Thermus thermophilus V/A-ATPase (c12 rotor ring) (Thermus thermophilus) (UniProt Q5SIT7)
Test: cryo-EM structure; isolated Vo (His3 tag on the c subunit) in nanodiscs (MSP1E3D1, DMPC by the methods), 20 mM Tris-HCl pH 8.0, 150 mM NaCl; CRYOARM200, K2 Summit; 3.9 Å; both purified

Row | binding | Binder
1 | binds | d subunit of the Thermus thermophilus V/A-ATPase (natural protein, d subunit (subunit C) of the V/A-ATPase of Thermus thermophilus, strain HB8) MADDFAYLNARVRVRRGTLLKESFFQEALDLSFADFLRLLSETVYGGELAGQGLPDVDRAVLRTQAKLVGDLPRLVTGEAREAVRLLLLRNDLHNLQALLRAKATGRPFEEVLLLPGTLREEVWRQAYEAQDPAGMAQVLAVPGHPLARALRAVLRETQDLARVEALLAKRFFEDVAKAAKGLDQPALRDYLALEVDAENLRTAFKLQGSGLAPDAFFLKGGRFVDRVRFARLMEGDYAVLDELSGTPFSGLSGVRDLKALERGLRCVLLKEAKKGVQDPLGVGLVLAYVKEREWEAVRLRLLARRAYFGLPRAQVEEEVVCP
2 | binds | a subunit of the Thermus thermophilus V/A-ATPase (protein, UniProt Q5SIT6 1-652) MIAPMEKLVLAGPKGRAKELLQSLQQAGVVHLETLRPEALSAYQLSPEERAELRRWEAVSAGAEHTLSLLGLEAEPARPFPEGLEAAEKALSPIQAHAEGLTRQKQELEEELALAQAYLEPLERLAALAHGLDKSPFLRVIPFLLTEKELPLVEEALRKALEDRYLLAHEAYAGGVAALVVVHRKEVDQAKAALSRAGVAELRLPGALGELPLSEAARRLKERAEAAPRELSEVRQHLAKLARESASTLQSLWTRAQDEVARLKALEELASGRFGFALLGYVPVKAKPKVEEALARHKESVVYAFEPVDEHHEADRIPVVLDNPPWAKPFELLVSFLNTPKYGTFDPTPVVPVFFPFWFGMIVGDIGYALLFYLVGRWLSGYVKRNEPLVIDLFALKLKPQVIGKLVHILNWMVFWTVVWGVIYGEFFGTFLEHLGVFGTPEHPGLIPILIHRIDTAKTANLLILLSVAFGVVLVFFGLALRAYLGLKHRHMAHFWEGVGYLGGLVGVLALAASYLGNLQAGWLQGLMYLGFGVFLLAVLMSRIWLMIPEIFTQAGHILSHIRIYAVGAAGGILAGLLTDVGFALAERLGLLGVLLGLLVAGVLHLLILLLTTLGHMLQPIRLLWVEFFTKFGFYEENGRPYRPFKSVREAQ
